Article PMC4636271
These are yes or no findings as the source states them, for the method shown. In cells and extracts the contact can be indirect. Here binding means that the protein was enriched with, or labelled near, the bait; the list need not be complete.

Target: lysyl-tRNA synthetase (KARS) tagged with S/FLAG/SBP, Q15046
Assay: affinity purification with mass spectrometry; S/FLAG/SBP-KARS in lysate (2 mg) of transfected HEK 293T cells held on streptavidin agarose, NETN buffer (20 mM Tris-HCl pH 7.5, 1 mM EDTA, 150 mM NaCl, 0.1% NP-40), 2 h, 4°C, three washes, eluted with 0.82 mM biotin; eluate fractionated by SEC (Superdex 200, PBS) and each fraction read by MRM-MS
Conditions: remark: other sources report otherwise

B1: threonyl-tRNA synthetase like protein 2 (TARSL2), A2RTX5 1-802 (protein)
chain: MAAEALAAEAVASRLERQEEDIRWLWSEVERLRDEQLNAPYSCQAEGPCLTREVAQLRAENCDLRHRLCSLRLCLAEERSRQATLESAELEAAQEAGAQPPPSQSQDKDMKKKKMKESEADSEVKHQPIFIKERLKLFEILKKDHQLLLAIYGKKGDTSNIITVRVADGQTVQGEVWKTTPYQVAAEISQELAESTVIAKVNGELWDLDRPLEGDSSLELLTFDNEEAQAVYWHSSAHILGEAMELYYGGHLCYGPPIENGFYYDMFIEDRAVSSTELSALENICKAIIKEKQPFERLEVSKEILLEMFKYNKFKCRILNEKVNTATTTVYRCGPLIDLCKGPHVRHTGKIKTIKIFKNSSTYWEGNPEMETLQRIYGISFPDNKMMRDWEKFQEEAKNRDHRKIGKEQELFFFHDLSPGSCFFLPRGAFIYNTLTDFIREEYHKRDFTEVLSPNMYNSKLWEASGHWQHYSENMFTFEIEKDTFALKPMNCPGHCLMFAHRPRSWREMPIRFADFGVLHRNELSGTLSGLTRVRRFQQDDAHIFCTVEQIEEEIKGCLQFLQSVYSTFGFSFQLNLSTRPENFLGEIEMWNEAEKQLQNSLMDFGEPWKMNPGDGAFYGPKIDIKIKDAIGRYHQCATIQLDFQLPIRFNLTYVSKDGDDKKRPVIIHRAILGSVERMIAILSENYGGKWPFWLSPRQVMVIPVGPTCEKYALQVSSEFFEEGFMADVDLDHSCTLNKKIRNAQLAQYNFILVVGEKEKIDNAVNVRTRDNKIHGEILVTSAIDKLKNLRKTRTLNAEEAF
binding: binds

B2: DARS, P14868 1-501 (enzyme)
chain: MPSASASRKSQEKPREIMDAAEDYAKERYGISSMIQSQEKPDRVLVRVRDLTIQKADEVVWVRARVHTSRAKGKQCFLVLRQQQFNVQALVAVGDHASKQMVKFAANINKESIVDVEGVVRKVNQKIGSCTQQDVELHVQKIYVISLAEPRLPLQLDDAVRPEAEGEEEGRATVNQDTRLDNRVIDLRTSTSQAVFRLQSGICHLFRETLINKGFVEIQTPKIISAASEGGANVFTVSYFKNNAYLAQSPQLYKQMCICADFEKVFSIGPVFRAEDSNTHRHLTEFVGLDIEMAFNYHYHEVMEEIADTMVQIFKGLQERFQTEIQTVNKQFPCEPFKFLEPTLRLEYCEALAMLREAGVEMGDEDDLSTPNEKLLGHLVKEKYDTDFYILDKYPLAVRPFYTMPDPRNPKQSNSYDMFMRGEEILSGAQRIHDPQLLTERALHHGIDLEKIKAYIDSFRFGAPPHAGGGIGLERVTMLFLGLHNVRQTSMFPRDPKRLTP
binding: binds

B3: RARS, P54136 1-660 (enzyme)
chain: MDVLVSECSARLLQQEEEIKSLTAEIDRLKNCGCLGASPNLEQLQEENLKLKYRLNILRKSLQAERNKPTKNMINIISRLQEVFGHAIKAAYPDLENPPLLVTPSQQAKFGDYQCNSAMGISQMLKTKEQKVNPREIAENITKHLPDNECIEKVEIAGPGFINVHLRKDFVSEQLTSLLVNGVQLPALGENKKVIVDFSSPNIAKEMHVGHLRSTIIGESISRLFEFAGYDVLRLNHVGDWGTQFGMLIAHLQDKFPDYLTVSPPIGDLQVFYKESKKRFDTEEEFKKRAYQCVVLLQGKNPDITKAWKLICDVSRQELNKIYDALDVSLIERGESFYQDRMNDIVKEFEDRGFVQVDDGRKIVFVPGCSIPLTIVKSDGGYTYDTSDLAAIKQRLFEEKADMIIYVVDNGQSVHFQTIFAAAQMIGWYDPKVTRVFHAGFGVVLGEDKKKFKTRSGETVRLMDLLGEGLKRSMDKLKEKERDKVLTAEELNAAQTSVAYGCIKYADLSHNRLNDYIFSFDKMLDDRGNTAAYLLYAFTRIRSIARLANIDEEMLQKAARETKILLDHEKEWKLGRCILRFPEILQKILDDLFLHTLCDYIYELATAFTEFYDSCYCVEKDRQTGKILKVNMWRMLLCEAVAAVMAKGFDILGIKPVQRM
binding: binds
